According to patent US20230165812A1, “NOCICEPTOR NEURONS CONTROL CANCER IMMUNOSURVEILLANCE” (priority 2020, published 2023):
“Also recorded” adds a separate entry of the source. Where two headings read alike, the source gives them in different places. For at least one compound, name, drawing or mass did not settle the structure.

Assays:
B16F10 cells = assay type: cell-based, mouse
B16F10 [1] = tested on: B16F10; design: species or system mice; conditions: mouse, in vivo
[2] = tested on: tumor-infiltrating CD8+ and CD4+ T-cells; assay type: in vivo, mice
B16F10-OVA [3] = tested on: B16F10-OVA; design: species or system mice; conditions: mouse, in vivo
[4] = tested on: tumor-infiltrating CD8 and CD4 T cells; assay type: in vivo, mice
[5] = tested on: tumor-innervating nociceptors; assay type: in vivo, mice
B16F10 [6] = tested on: B16F10; design: species or system mice; conditions: mouse, in vivo; remark: listed apart in the source
CGRP [7] = tested on: CGRP; design: species or system mice
CGRP [8] = tested on: CGRP; design: species or system mice; remark: listed apart in the source
B16F10-OVA [9] = tested on: B16F10-OVA; design: species or system mice; conditions: mouse, in vivo; remark: listed apart in the source
[10] = tested on: tumor-innervating nociceptors; assay type: in vivo, mice; remark: listed apart in the source
B16F10 [11] = tested on: B16F10; design: species or system mice; conditions: mouse, in vivo; remark: listed apart in the source

Compound: CC[N+](CC)(CC)CC(=O)Nc1c(C)cccc1C [QX-314]
- B16F10 tumor growth/survival in vitro (B16F10 cells): failed to impact; also recorded: no impact
- cultured B16F10 survival (B16F10 cells; BIBN4096 1-4 μM): no impacts
- in vitro proliferation of cultured B16F10 cells (B16F10 cells; QX-314 0.1-1%, 72 h): did not impact
- B16F10 tumor growth (B16F10 [1]): reduced
- B16F10 tumor volume (B16F10 [1]): reduced
- B16F10 tumor weight (B16F10 [1]): reduced
- intra-tumoral CD4+ T-cell exhaustion (PD1+Lag3+Tim3+ CD4+) ([2]; Example 1 dosing): decreased
- intra-tumoral number of Granzyme B+ CD8+ T-cells ([2]; Example 1 dosing): increased
- intra-tumoral number of INFγ+ CD8+ T-cells ([2]; Example 1 dosing): increased
- intra-tumoral number of TNFα+ CD8+ T-cells ([2]; Example 1 dosing): increased
- intra-tumoral number of total CD8+ T-cells ([2]; Example 1 dosing): increased
- intra-tumoral total CD4+ T-cells counts ([2]; mouse, in vivo): increased
- number/proportion of intra-tumor PD1+Lag3+Tim3+ CD8+ T-cells ([2]; mouse, in vivo): reduced
- αPDL1-mediated decrease of B16F10-OVA tumor growth and volume in co-exposed mice (B16F10-OVA [3]): further enhanced
- infiltration of INFγ+ CD8 T cells ([4]; Example 2 dosing): increased
- infiltration of total CD8 T cells ([4]; Example 2 dosing): enhances; also recorded: increased
- intra-tumor PD1+Lag3+TIM3+ CD8 T cells ([4]; Example 2 dosing): decrease; also recorded: reduced
- intra-tumoral PD1+Lag3+TIM3+ CD4 T cells ([4]; Example 2 dosing): decrease
- total number of intra-tumoral CD4 T cells ([4]; Example 2 dosing): enhances; also recorded: increased
- tumor infiltration of TNFα+ CD4 T cells ([4]; Example 2 dosing): failed to impact
- tumor infiltration of TNFα+ CD8 T cells ([4]; Example 2 dosing): increased
- tumor infiltration of Granzyme B+ CD4 T cells ([4]; mouse, in vivo): decrease
- tumor infiltration of Granzyme B+ CD8 T cells ([4]; mouse, in vivo): increased
- thermal pain hypersensitivity ([5]; QX-314 100 μM qd i.d.): absent
- melanoma-induced pain hypersensitivity ([5]; hindpaw inoculation of B16F10): relieved; also recorded: reversed
- itch (pruritus) ([5]; mouse, in vivo): absent; also recorded: relieved; also recorded: reversed
- mechanical pain hypersensitivity ([5]; mouse, in vivo): absent
- tumor growth after intradermal hindpaw inoculation of B16F10 ([5]; mouse, in vivo): absent
- B16F10 tumor growth (B16F10 [6]): reduced
- B16F10 tumor volume (B16F10 [6]): decreased
- B16F10 tumor weight (B16F10 [6]): decreased
- capsaicin-induced CGRP release from B16F10 tumor surrounding skin explant after pre-treatment (CGRP [7]): absent; also recorded: blunted
- capsaicin-induced CGRP release from tumor-inoculated skin after pre-treatment (CGRP [8]): absent
- increase of αPDL1-mediated tumor reduction by co-treatment (B16F10-OVA [9]): ~5 fold
- lymphocyte function in cell culture (cytotoxic CD8+ T-cells): failed to impact
- CD8+ T-cells function (cytotoxic CD8+ T-cells; in culture): no impacts
- itch after flank injection ([10]; QX-314 0.3% qd i.d.): stopped
- mechanical pain hypersensitivity ([10]; mouse, in vivo): stopped
- thermal pain hypersensitivity ([10]; mouse, in vivo): stopped
- tumor induction after B16F10-hindpaw inoculation ([10]; mouse, in vivo): stopped
- prolongation of the animals' median length of survival (B16F10 [11]): ~270%
